# In PMC5996148:
# Several values for one entry are separate records, joined by “and”; a condition that tells them apart may be missing. Equal values may be shown once. The list shows a part of the results.
# How the values were obtained:
# Test in all cases: protein microarray (ProtoArray v5.0), streptavidin-Alexa Fluor 647
# Settings in all cases: 3'-biotin; 20 mM Tris (pH 7.5), 5 mM MgCl2, 100 mM KCl, 0.1% Tween-20, A/T-rich and random oligonucleotide blockers; temperature not stated; high values mean tight binding
# DCXR (human) = test system: DCXR (human)
# DDAH2 (human) = test system: DDAH2 (human)
# DDX39 (human) = test system: DDX39 (human)
# DEFA6 (human) = test system: DEFA6 (human)
# DEFB1 (human) = test system: DEFB1 (human)
# DEFB119 (human) = test system: DEFB119 (human)
# [1] = test system: DENN domain-containing protein 1B (human)
# DERL1 (human) = test system: DERL1 (human)
# DERL2 (human) = test system: DERL2 (human)
# DFFA (human) = test system: DFFA (human)
sequence,measurement,setting,value
GGGAGGCTGAGGCAGG [G4-1 biotinylated (PQS2)],binding signal,DCXR (human),-0.315 z-score
same,binding signal,DDAH2 (human),-0.307 z-score
same,binding signal,DDX39 (human),-0.265 z-score and -0.287 z-score
same,binding signal,DEFA6 (human),-0.35 z-score
same,binding signal,DEFB1 (human),-0.304 z-score
same,binding signal,DEFB119 (human),-0.323 z-score
same,binding signal,[1],-0.298 z-score
same,binding signal,DERL1 (human),-0.276 z-score
same,binding signal,DERL2 (human),-0.31 z-score
same,binding signal,DFFA (human),-0.36 z-score and -0.361 z-score
